The record followed here is article PMC10905880.

Common to all, as to test: split reporter; BiFC: OsCYCD-nYFP with OsRBR-cYFP or OsCDKA-cYFP co-expressed in Nicotiana benthamiana pavement cells by Agrobacterium infiltration; confocal microscopy after 48 and 72 h; Histone H1.2-RFP as nuclear marker
Experiment [1] addresses OsCYCD1;1-nYFP (rice (Oryza sativa L. spp. japonica, Nipponbare)).
In experiment [2] the target is OsCYCD1;2-nYFP (rice (Oryza sativa L. spp. japonica, Nipponbare)).
Experiment [3] deals with OsCYCD2;1-nYFP (rice (Oryza sativa L. spp. japonica, Nipponbare)).
The target of experiment [4] is OsCYCD2;2-nYFP (rice (Oryza sativa L. spp. japonica, Nipponbare)).
For experiment [5], the target named is OsCYCD2;3-nYFP (rice (Oryza sativa L. spp. japonica, Nipponbare)).
Experiment [6] addresses OsCYCD3;1-nYFP (rice (Oryza sativa L. spp. japonica, Nipponbare)).
Experiment [7] has as its target OsCYCD3;2-nYFP (rice (Oryza sativa L. spp. japonica, Nipponbare)).
In experiment [8] the target is OsCYCD4;1-nYFP (rice (Oryza sativa L. spp. japonica, Nipponbare)).
The target of experiment [9] is OsCYCD4;2-nYFP (rice (Oryza sativa L. spp. japonica, Nipponbare)).
Experiment [10] has as its target OsCYCD5;1-nYFP (rice (Oryza sativa L. spp. japonica, Nipponbare)).
In experiment [11] the target is OsCYCD5;2-nYFP (rice (Oryza sativa L. spp. japonica, Nipponbare)).
For experiment [12], the target named is OsCYCD5;3-nYFP (rice (Oryza sativa L. spp. japonica, Nipponbare)).
The target of experiment [13] is OsCYCD6;1-nYFP (rice (Oryza sativa L. spp. japonica, Nipponbare)).
The target of experiment [14] is OsCYCD7;1-nYFP (rice (Oryza sativa L. spp. japonica, Nipponbare)).

No constants are given. Whether binding was seen depends on the method and setting. Binding seen in cells or lysates may run through a third protein. For some assays here: Binding calls can cover weak binding; strength is not graded here. Where a sequence is shown, tags or fusion partners need not be part of it.

B1: OsRBR2-cYFP (protein, UniProt Q2R374 1-978)
chain: MASQPPAAVEARLADLCKELGVDEGVAGEAAAVLEEGKGALLASPSFGSKSPEDAEKLCFAFVLYCVSKLKETKAGSSGVRLWEILKGCKLKYDDFFKESQRLASRIDQVLGSRYGSDWEARLELKQLENLVNLLADASRFYCKAFNELFLSPSTDQEPGSTTNIPDYIRFGWLLFLILRSKSPELFKDLVSCIHGLVAILAILLIHVPAKFRSFTIEGSSHLIKQTEKGVDLLPSLCHNYHTSEDRLKEMMGKSYKVIEVFFSRKAINASEFKTVNLDKIDTDGLMYFKDLVDDEIFQSNLEKLEKLSSTTGCQGELDLEMFLTSNDYVLNAENSSGSSANFGCSKRVFETLASPTKTIKNMLAAPSSPSSPANGGSIKIVQMTPVTSAMTTAKWLRDVISSLPDKPSSKLEEFLSSCDTDLTSDVVKRVSIILEAIFPTKSIDRGTSIGLNCANAFDIPWAEARKMEASKLYYRVLEAICRAESQNNNVNNLTPLLSNERFHRCLIACSAELVLATHKTVIMMFPAVLESTGLTAFDLSKIIENFVRHEETLPRELKRHLNSLEEQLLESMSWEKGSSLYNSLVVARPSLSTEINSLGLLAEPMPSLDGIVARQSIHPDGLPPTPSKRWPSAGPDGNCYPQSPKRLCTESRNSLVERNSQTPPPKQSQTGLSILKAKYHPLQATFASPTVSNPVSGNEKCAVVGVQIFFSKILKLAAIRIRNLCERLRHEELTVSVYNIFKQILDQQTALFFNRHVDQIILCCLYGVAKVSQLSLTFKEIVNNYKREPQCKPEVFRSIFVGSTNRNGGFGSRHVDIIVFYNQVFVPTVKPLLVALMPSSTRPEDKRNTNSQIPGSPKSSPFSNLPDMSPKKVSSSHNVYVSPLRQTKMDALLSPSSRSFYACIGESTQAFQSPSKDLAAINSRLNYPTRRINTRINFDMVSDSVVAGSLGQPNGGSASSDPAAAFSPLSKKSKTDS
Take B1: the binding entry in experiment [1] is recorded as “binds”; in experiment [2], “binds”; in experiment [3], “binds”; in experiment [4] it was “no binding”; in experiment [5] it was “binds”; in [6], “binds”. Also, the binding result in [7] is on record as “binds”; in experiment [8] it was “binds”; in experiment [9], “no binding”; in experiment [10] it was “binds”; in experiment [11], “binds”; in experiment [12] it was “binds”. Further, the binding result in experiment [13] and in experiment [14] was “no binding” throughout.
